Drawing on patent publication US20120231996A1 (priority 2006, published 2012), this text covers outcome for five substances.

Square brackets hold non-standard residues; d marks the D form. Ends that are not written are not given here.

A short description of the series: general procedure: Fmoc solid-phase peptide synthesis; 2-chlorotrityl polystyrene resin. To be noted: cyclisation step.
Where [1] appears, read: thioether ring, sequence written open.

On to Cys-Gly-LPro-Trp, for which, under setting [1], the outcome was “Exclusive disulfide”.

On to Cys-Leu-LPro-Trp, for which the outcome under setting [1] is “Exclusive disulfide”.

Cys-Gly-Gly-Trp: the outcome under setting [1] is “Exclusive disulfide”.

Take CG[dP]W: the outcome was “Exclusive disulfide”.

Consider C[dP]GW, for which the outcome is recorded as “Exclusive disulfide”.
